# Test results: the supplement of paper PMC8728848
# The other results are listed elsewhere or left out.
# B1: B3GalT2 (Rattus norvegicus) (protein)
# chain: LMLQWRRRHCCFAKMSWNAKRSLFRTHLMGVLSLVFLFAMFLFFNHHDWLPGRPGFKENPVTYTFRGFRSTKTETNQSSLRNIWKEVVPQTLRPQTATNSNNTELSPQGVTGLENTLSANGSIYNEKGTGHPNSYHFKYIINEPEKCQEKSPFLILLIAAEPGQIEARRAIRQTWGNETLAPGIQITRIFLLGISIKLNGYLQHAIQEESIQYHDIIQQEYLDTYYNLTIKTLMGMNWVATYCPHTPYVMKTDSDMFVNTEYLIHKLLKPDLPPRHNYFTGYLMRGYAPNRNKDSKWYMPPDLYPSERYPVFCSGTGYVFSGDLAEKIFKVSLGIRRLHLEDVYVGICLAKLRVDPVPPPNEFVFNHWRVSYSSCKYSHLITSHQFQPSELIKYWNHLQQNKHNACVNAAKEKAGRYRHRKLH
# Experiments:
# Assay in all cases: glycan array binding signal (z-score within array); higher = stronger binding
# Conditions in all cases: glycan notation: IUPAC condensed, linker removed
# [1] = target: Neu5Ac(a2-6)Gal(b1-4)GlcNAc(b1-2)Man(a1-3)[Man(a1-6)]Man(b1-4)GlcNAc(b1-4)GlcNAc
# In short: (§1)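 The binding signal is a Z-score computed within each array and averaged over linkers. Arrays of the same protein sequence at different concentrations or buffers were also averaged together. Data originate from 3228 arrays in the Consortium for Functional Glycomics database, kept only where the protein sequence was available.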
# [2] = target: Neu5Ac(a2-6)Gal(b1-4)GlcNAc(b1-2)Man(a1-3)[Neu5Ac(a2-3)Gal(b1-4)GlcNAc(b1-2)Man(a1-6)]Man(b1-4)GlcNAc(b1-4)GlcNAc
# In short: as §1
# [3] = target: Neu5Ac(a2-6)Gal(b1-4)GlcNAc(b1-2)Man(a1-3)[Neu5Ac(a2-6)Gal(b1-4)GlcNAc(b1-2)Man(a1-6)]Man(b1-4)GlcNAc(b1-4)GlcNAc
# In short: as §1
# [4] = target: Neu5Ac(a2-6)Gal(b1-4)GlcNAc(b1-2)Man(a1-3)[Neu5Ac(a2-6)Gal(b1-4)GlcNAc(b1-2)Man(a1-6)]Man(b1-4)GlcNAc(b1-4)[Fuc(a1-6)]GlcNAc
# In short: as §1
# [5] = target: Neu5Ac(a2-6)Gal(b1-4)GlcNAc(b1-2)Man(a1-6)Man(b1-4)GlcNAc(b1-4)GlcNAc
# In short: as §1
# [6] = target: Neu5Ac(a2-6)Gal(b1-4)GlcNAc(b1-2)Man(a1-6)[Gal(b1-4)GlcNAc(b1-2)Man(a1-3)]Man(b1-4)GlcNAc(b1-4)GlcNAc
# In short: as §1
# [7] = target: Neu5Ac(a2-6)Gal(b1-4)GlcNAc(b1-2)Man(a1-6)[GlcNAc(b1-2)Man(a1-3)]Man(b1-4)GlcNAc(b1-4)GlcNAc
# In short: as §1
# [8] = target: Neu5Ac(a2-6)Gal(b1-4)GlcNAc(b1-2)Man(a1-6)[Man(a1-3)]Man(b1-4)GlcNAc(b1-4)GlcNAc
# In short: as §1
# [9] = target: Neu5Ac(a2-6)Gal(b1-4)GlcNAc(b1-2)[Neu5Ac(a2-6)Gal(b1-4)GlcNAc(b1-4)]Man(a1-3)[GlcNAc(b1-4)][Neu5Ac(a2-6)Gal(b1-4)GlcNAc(b1-2)[Neu5Ac(a2-6)Gal(b1-4)GlcNAc(b1-6)]Man(a1-6)]Man(b1-4)GlcNAc(b1-4)GlcNAc
# In short: as §1
# [10] = target: Neu5Ac(a2-6)Gal(b1-4)GlcNAc(b1-2)[Neu5Ac(a2-6)Gal(b1-4)GlcNAc(b1-4)]Man(a1-3)[GlcNAc(b1-4)][Neu5Ac(a2-6)Gal(b1-4)GlcNAc(b1-4)Man(a1-6)]Man(b1-4)GlcNAc(b1-4)GlcNAc
# In short: as §1
# [11] = target: Neu5Ac(a2-6)Gal(b1-4)GlcNAc(b1-2)[Neu5Ac(a2-6)Gal(b1-4)GlcNAc(b1-6)]Man(a1-6)[Neu5Ac(a2-6)Gal(b1-4)GlcNAc(b1-2)Man(a1-3)][GlcNAc(b1-4)]Man(b1-4)GlcNAc(b1-4)GlcNAc
# In short: as §1
# [12] = target: Neu5Ac(a2-6)Gal(b1-4)GlcNAc(b1-3)Gal(b1-3)GlcNAc
# In short: as §1
# [13] = target: Neu5Ac(a2-6)Gal(b1-4)GlcNAc(b1-3)Gal(b1-4)GlcNAc
# In short: as §1
# [14] = target: Neu5Ac(a2-6)Gal(b1-4)GlcNAc(b1-3)Gal(b1-4)GlcNAc(b1-2)Man(a1-3)[Neu5Ac(a2-6)Gal(b1-4)GlcNAc(b1-3)Gal(b1-4)GlcNAc(b1-2)Man(a1-6)]GalNAc
# In short: as §1
# [15] = target: Neu5Ac(a2-6)Gal(b1-4)GlcNAc(b1-3)Gal(b1-4)GlcNAc(b1-3)Gal(b1-4)GlcNAc
# In short: as §1
# [16] = target: Neu5Ac(a2-6)Gal(b1-4)GlcNAc(b1-3)Gal(b1-4)GlcNAc(b1-3)Gal(b1-4)GlcNAc(b1-2)Man(a1-3)[Neu5Ac(a2-6)Gal(b1-4)GlcNAc(b1-3)Gal(b1-4)GlcNAc(b1-3)Gal(b1-4)GlcNAc(b1-2)Man(a1-6)]GalNAc
# In short: as §1
# [17] = target: Neu5Ac(a2-6)Gal(b1-4)GlcNAc(b1-3)Gal(b1-4)GlcNAc(b1-3)GalNAc
# In short: as §1
# [18] = target: Neu5Ac(a2-6)Gal(b1-4)GlcNAc(b1-3)Gal(b1-4)GlcNAc(b1-3)[Neu5Ac(a2-6)Gal(b1-4)GlcNAc(b1-3)Gal(b1-4)GlcNAc(b1-6)]GalNAc
# In short: as §1
# [19] = target: Neu5Ac(a2-6)Gal(b1-4)GlcNAc(b1-3)Gal(b1-4)GlcNAc(b1-6)[Gal(b1-3)]GalNAc
# In short: as §1
# [20] = target: Neu5Ac(a2-6)Gal(b1-4)GlcNAc(b1-3)Gal(b1-4)[Fuc(a1-3)]GlcNAc(b1-3)Gal(b1-4)[Fuc(a1-3)]GlcNAc
# In short: as §1
# [21] = target: Neu5Ac(a2-6)Gal(b1-4)GlcNAc(b1-3)GalNAc
# In short: as §1
# [22] = target: Neu5Ac(a2-6)Gal(b1-4)GlcNAc(b1-3)[Neu5Ac(a2-6)Gal(b1-4)GlcNAc(b1-6)]GalNAc
# In short: as §1
# [23] = target: Neu5Ac(a2-6)Gal(b1-4)GlcNAc(b1-6)GalNAc
# In short: as §1
# [24] = target: Neu5Ac(a2-6)Gal(b1-4)GlcNAc(b1-6)[Gal(b1-3)GlcNAc(b1-3)]Gal(b1-4)Glc
# In short: as §1
# [25] = target: Neu5Ac(a2-6)Gal(b1-4)GlcNAc(b1-6)[Gal(b1-3)]GalNAc
# In short: as §1
# [26] = target: Neu5Ac(a2-6)Gal(b1-4)GlcNAc6S
# In short: as §1
# Neu5Ac(a2-6)GalNAc = target: Neu5Ac(a2-6)GalNAc
# In short: as §1
# [27] = target: Neu5Ac(a2-6)GalNAc(b1-4)GlcNAc
# In short: as §1
# [28] = target: Neu5Ac(a2-6)GalNAc(b1-4)GlcNAc6S
# In short: as §1
# [29] = target: Neu5Ac(a2-6)GlcNAc(b1-4)GlcNAc
# In short: as §1
# [30] = target: Neu5Ac(a2-6)GlcNAc(b1-4)GlcNAc(b1-4)GlcNAc
# In short: as §1
binder,measurement,setting,value
B1,glycan array binding signal (z-score),[1],0.491
same,glycan array binding signal (z-score),[2],-0.933
same,glycan array binding signal (z-score),[3],0.054
same,glycan array binding signal (z-score),[4],0.659
same,glycan array binding signal (z-score),[5],0.128
same,glycan array binding signal (z-score),[6],-0.96
same,glycan array binding signal (z-score),[7],-0.887
same,glycan array binding signal (z-score),[8],0.005
same,glycan array binding signal (z-score),[9],2.01
same,glycan array binding signal (z-score),[10],1.82
same,glycan array binding signal (z-score),[11],-0.403
same,glycan array binding signal (z-score),[12],-0.595
same,glycan array binding signal (z-score),[13],0.242
same,glycan array binding signal (z-score),[14],-0.161
same,glycan array binding signal (z-score),[15],0.619
same,glycan array binding signal (z-score),[16],2.1
same,glycan array binding signal (z-score),[17],-0.826
same,glycan array binding signal (z-score),[18],-0.723
same,glycan array binding signal (z-score),[19],-0.783
same,glycan array binding signal (z-score),[20],0.268
same,glycan array binding signal (z-score),[21],-0.64
same,glycan array binding signal (z-score),[22],-1.14
same,glycan array binding signal (z-score),[23],0.098
same,glycan array binding signal (z-score),[24],-0.215
same,glycan array binding signal (z-score),[25],-0.104
same,glycan array binding signal (z-score),[26],0.926
same,glycan array binding signal (z-score),Neu5Ac(a2-6)GalNAc,1.23
same,glycan array binding signal (z-score),[27],0.082
same,glycan array binding signal (z-score),[28],-0.328
same,glycan array binding signal (z-score),[29],-0.752
same,glycan array binding signal (z-score),[30],0.862

# Part of the list above, as tab-separated lines.
binder	measurement	setting	value
B1	glycan array binding signal (z-score)	[22]	-1.14
same	glycan array binding signal (z-score)	[23]	0.098
